Results are given in words; binding and its absence hold for the method and conditions named. In cells and extracts the contact can be indirect. Here binding means that the protein was enriched with, or labelled near, the bait; the list need not be complete.
Biological target: 3xFlag-BRAF (UniProt P15056)
Assay: affinity purification with mass spectrometry; HEK293T transfected with 3xFlag-BRAF for 24 h; lysate in IP lysis buffer (50 mM Tris pH 6.8, 30 mM NaCl, 1% Triton X-100, 1 mM PMSF) incubated with anti-Flag agarose beads for 12 h; bands cut from SDS-PAGE; LC-MS/MS

Amino acid sequences for entries named in this document (tags omitted). Residues count along the entry.
UniProt P15056: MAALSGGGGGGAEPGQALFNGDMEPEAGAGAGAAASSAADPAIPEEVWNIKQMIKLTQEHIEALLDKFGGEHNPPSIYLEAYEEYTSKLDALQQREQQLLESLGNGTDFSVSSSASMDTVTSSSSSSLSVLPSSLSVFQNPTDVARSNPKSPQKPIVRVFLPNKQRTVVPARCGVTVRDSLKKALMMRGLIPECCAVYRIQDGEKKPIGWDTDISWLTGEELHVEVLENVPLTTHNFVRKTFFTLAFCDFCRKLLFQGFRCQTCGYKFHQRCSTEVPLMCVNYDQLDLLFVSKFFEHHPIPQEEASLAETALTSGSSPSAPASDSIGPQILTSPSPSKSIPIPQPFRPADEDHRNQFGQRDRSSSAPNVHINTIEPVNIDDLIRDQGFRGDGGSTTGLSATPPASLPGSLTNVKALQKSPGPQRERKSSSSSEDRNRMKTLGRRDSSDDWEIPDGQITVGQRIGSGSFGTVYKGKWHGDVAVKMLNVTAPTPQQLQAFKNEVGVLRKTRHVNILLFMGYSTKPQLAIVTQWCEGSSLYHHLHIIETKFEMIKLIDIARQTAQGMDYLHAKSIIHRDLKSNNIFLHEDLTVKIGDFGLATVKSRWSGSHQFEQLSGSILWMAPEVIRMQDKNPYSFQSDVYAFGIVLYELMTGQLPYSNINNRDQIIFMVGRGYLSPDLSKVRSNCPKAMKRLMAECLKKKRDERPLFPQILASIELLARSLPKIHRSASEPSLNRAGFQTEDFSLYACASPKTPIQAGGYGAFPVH
UniProt P10809, residues 27-573: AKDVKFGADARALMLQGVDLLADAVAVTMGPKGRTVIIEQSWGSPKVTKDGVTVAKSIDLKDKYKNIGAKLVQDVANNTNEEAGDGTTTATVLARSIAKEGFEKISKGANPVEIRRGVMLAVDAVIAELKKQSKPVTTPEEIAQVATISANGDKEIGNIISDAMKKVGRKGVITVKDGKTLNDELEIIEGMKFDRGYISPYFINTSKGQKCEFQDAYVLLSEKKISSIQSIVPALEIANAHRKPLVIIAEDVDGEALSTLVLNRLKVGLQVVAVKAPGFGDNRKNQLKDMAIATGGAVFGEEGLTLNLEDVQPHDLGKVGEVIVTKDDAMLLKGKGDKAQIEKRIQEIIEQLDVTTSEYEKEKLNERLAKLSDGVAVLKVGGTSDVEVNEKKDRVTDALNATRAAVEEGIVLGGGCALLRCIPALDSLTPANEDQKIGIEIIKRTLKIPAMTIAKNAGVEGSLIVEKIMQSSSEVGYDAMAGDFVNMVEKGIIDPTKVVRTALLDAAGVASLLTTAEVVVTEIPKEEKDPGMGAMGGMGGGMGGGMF

binding: binds
Substance: heat shock protein 60, endogenous, HEK293T (from UniProt P10809 27-573)

— article PMC9117275
